## Results of single-concentration screens

Measurements from “University of Dundee, Small-Polar-MMV Screening Library” (2021), ChEMBL document CHEMBL3988442.

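Whole-parasite assay of Trypanosoma brucei over 72 hours; the read-out is not stated. Compounds at 30 µM. Direction is inferred from retests: higher values go with stronger inhibition. Values scatter widely below zero; nearly all retest evidence comes from the higher of the two concentrations used. Of about 64,000 compounds tested this way, about 940 (1.5%) reached 50% or more in at least one test.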

Values are the deposited “Percent Effect”, in %.
The controls that fix the scale are not given in the record; negative values are as filed.
Compounds were drawn at random from those tested, without regard to their results.

- O=C(COCc1ccccc1)N1CCCC(OCc2cccnc2)C1 (stereo not shown) | -49.7%
- Cc1cccc(-n2cc(CNc3ncnc4c3CCNCC4)cn2)c1 | -17.6%
- CC(=O)N1CCCC1c1ccc(Br)cn1 (stereo not shown) | -12.96%
- CC1CCN(CCNC(=O)c2scnc2Cl)CC1 | -9.869%
- CCC(C)NC(=O)c1ccn(COc2ccccc2Cl)n1 (stereo not shown) | -4.937%
- COc1ccc2c(c1)OCC(CNC(=O)c1cnc(O)cn1)C2 (stereo not shown) | 4.065%
- [H][C@@]12CN(C3CCOCC3)C[C@]1([H])N(CCCc1ccc(F)cc1)C(=O)O2 | -14.32%
- Cl.OC(CNCc1ccccc1C(F)(F)F)c1ccccc1 (stereo not shown) | 15.98%
- [H][C@]12CCC[C@@]1(COC)CN(C(=O)COCC)C2 | 3.275%
- Cn1cccc1C(=O)N1CCC2(CCN2c2ncccn2)C1.O=C(O)C(F)(F)F (stereo not shown) | -41.62%
- Cc1csc(Nc2cc(C3CCCCN3C)nc(C)n2)n1 (stereo not shown) | 67.05%
- Cc1c(Cl)cccc1OCC(=O)NC1(C#N)CCSC1 (stereo not shown) | 8.257%
- CCS(=O)(=O)N1CCCC2(COCCN(c3ccccn3)C2)C1.O=C(O)C(F)(F)F (stereo not shown) | -23.72%
- Cc1nc(COc2ccc(S(=O)(=O)N(C)C)cc2)sc1C | -42.86%
- [H][C@]12CC[C@]([H])(CN(Cc3nnc(-c4ccccc4)o3)C1)N(CCOC)C2=O | -34.42%
- CCn1nc(C)c2ccn(CC(=O)NC3CCCC3)c(=O)c21 | -25.35%
- COCCN(C)Cc1nc(-c2cccc(F)c2F)oc1C | 1.002%
- Cc1cnn(C2CCCN(C(=O)Cc3n[nH]c4ccccc34)C2)c1 (stereo not shown) | -13.99%
- [H][C@@]12CCN(C(=O)c3cccnc3OC)C[C@@]1([H])O[C@H](c1noc(C)n1)C2 | -43.22%
- CS(=O)(=O)c1cc(Cl)cnc1C1CCN(C(=O)C2CCOCC2)CC1 | -18.96%
- CCC[C@@H]1CN(C(=O)CCc2ccco2)C[C@H]1NS(C)(=O)=O | -26.85%
- Cc1nc(C2CCCN(C(=O)c3ccco3)C2)no1 (stereo not shown) | -32.87%
- CCS(=O)(=O)Nc1ccc2c(c1)OCC(C)(C)C(=O)N2C | -6.533%
- COc1cccc(C(=O)N2CCC3(CCC(=O)N(C(C)C)C3)CC2)c1C | 5.424%
- CC(c1ccco1)N(C(=O)c1cccc(C#N)c1)C1CC1 (stereo not shown) | -68.39%
- CS(=O)(=O)c1nccn1Cc1ccc(C(N)=O)cc1 | 12.61%
- COc1cc(C(=O)N(C)Cc2cc(C(=O)O)c(C)o2)cc(OC)c1OC | -5.458%
- CNC(=O)NC(=O)CN1CCc2c(Br)ccc(F)c2C1 | -4.294%
- COc1c(C2CCCN2C(=O)c2csc(C3CC3)n2)c(C)nn1C (stereo not shown) | -28.76%
- Cc1ccc2cc(CNCCCN3CCOCC3)c(=O)[nH]c2c1C | 15.05%
- NC(=O)c1cc2c(nc1Oc1cccc(CN3CCCC3)c1F)CCC2 | -19.35%
- [H][C@]12CN(Cc3ccccc3C)CC[C@@]1(O)CCN(C(=O)C1CCC1)C2 | -38.66%
- [H][C@]12CC[C@]([H])(CN(Cc3ccncc3)C1)N(C(=O)CCOCC)C2 | -40.19%
- COc1ccccc1OCCC(=O)NC1CCc2nc(C)cn2C1 (stereo not shown) | -20.43%
- CCN(CC(=O)NC(C)C)C(=O)c1csc(Cc2ccccc2)n1 | -65.12%
- CN1N=C(C(=O)N(Cc2ccco2)C2CC2)CCC1=O | -4.551%
- CC1CCc2nn(CCNC(=O)Cc3ccc(F)cc3)c(=O)cc2C1 (stereo not shown) | -14.64%
- O=C(O)C(F)(F)F.O=C(O)C(F)(F)F.O=C(O)C(F)(F)F.[H][C@@]12CN(Cc3ccccn3)C[C@]1([H])OCCN2c1ncccn1 | 0.8244%
- Cc1cc(C)n(CC2CCCN2CC(=O)N(C)Cc2ccc(C)o2)n1 (stereo not shown) | -32.02%
- CCCNC(=O)CNC(=O)CC1CCCc2cc(OC)ccc21 (stereo not shown) | -69.19%
- [H][C@]12CCCCN1CCC[C@@]2(O)CN1CCN(Cc2ncccc2C)CC1 | 1.685%
- CCCN1CC2(CCN(C)CC2)CC1C(=O)NCc1cc(C)nn1C (stereo not shown) | -16.45%
- CN1CCN(C(=O)CC2CCN(CCc3ccccn3)CC2)CC1 | -35%
- CCS(=O)(=O)N1CCCC2(CCCC(=O)N2C)C1 (stereo not shown) | -0.342%
- CC1CC(=O)c2cc(C(=O)N3CCN(C)CC3)c(=O)[nH]c2C1 (stereo not shown) | -8.409%

The last 3 entries again:

{"compound": "CN1CCN(C(=O)CC2CCN(CCc3ccccn3)CC2)CC1", "percent effect": -35}
{"compound": "CCS(=O)(=O)N1CCCC2(CCCC(=O)N2C)C1", "stereo": "stereo not shown", "percent effect": -0.342}
{"compound": "CC1CC(=O)c2cc(C(=O)N3CCN(C)CC3)c(=O)[nH]c2C1", "stereo": "stereo not shown", "percent effect": -8.409}